Results published in PubChem BioAssay AID587 (National Center for Advancing Translational Sciences (NCATS), 2007).
Out of some 59,000 compounds screened, about 35 (0.06%) were called active. Inconclusive results, whose numbers are uncertain, are shown with a selection of clear calls. No stated cut-off is given here; in the data, active means max dye-equivalent concentration above about 10 nM; inconclusive means between about 1.1 nM and that limit; inactive means weaker than that.

Experiment: qHTS Assay for Spectroscopic Profiling in Texas Red Spectral Region
Details: Compound fluorescence, Texas Red channel, 547/618 nm; active compounds read high
In short: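 qHTS profiling of intrinsic compound fluorescence; 100 mM Tris pH 8.0; 15 min RT; ex 547 / em 618 nm; response expressed as Texas Red dye-equivalent concentration from six-point plate standard.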

| Compound | max dye-equivalent concentration | outcome |
| --- | --- | --- |
| CCOC(=O)N1CCN(Cc2oc(CO)cc(=O)c2O)CC1 | inconclusive: 1.9 nM | – |
| CC(C)NC(=O)CSc1nncn1-c1ccccc1 | inconclusive: 1.7 nM | – |
| Cc1ccc2nsnc2c1S(=O)(=O)N(Cc1cc2cccc(C)c2[nH]c1=O)CC1CCCO1 (stereo unspecified) | inconclusive: 1.4 nM | – |
| COc1ncc2nc(-c3ccccc3)c(=O)n(C)c2n1 | inactive | – |
| Cc1ccc(-c2noc(CCC(=O)NC3CCN(Cc4ccccc4)CC3)n2)cc1 | inconclusive: 1.1 nM | – |
| CN1C(=O)C2CN(CCc3ccccc3)CNC2N(C)C1=O (stereo unspecified) | inconclusive: 3 nM | – |
| COc1ccc(OCCOC(=O)c2cccc(-n3cnnn3)c2)cc1 | inconclusive: 1.9 nM | – |
| COCCN(CCOC)c1ncnc2c1cnn2-c1ccc(Cl)cc1 | inconclusive: 1.3 nM | – |
| COc1ccc(S(=O)(=O)NCc2ccccn2)cc1Cl | inconclusive: 1.4 nM | – |
| CN(C)c1ccc(C(=O)OCC(=O)NC2CCCCC2)cc1 | inconclusive: 3 nM | – |
| O=C(COc1ncnc2sccc12)N1CCc2ccccc2C1 | inconclusive: 2.2 nM | – |
| Cc1cc(Nc2ccccc2)n(C(=O)c2ccc(N)cc2)n1 | inconclusive: 1.1 nM | – |
| O=C(CN1C2CCC1CC(NC(=O)NC1CCCCC1)C2)NC1CC1 (stereo unspecified) | inconclusive: 1.4 nM | – |
| CN(C)/C=c1\sc2c(C#N)cc(C(=O)c3ccc(Br)cc3)n2c1=O | inactive | – |
| CCCCc1c(O)nc(N2CCN(Cc3ccccc3)CC2)[nH]c1=O | inconclusive: 1.9 nM | – |
| C/C(=C(/CCO)SSC[C@@H]1CCCO1)N(C=O)Cc1cnc(C)nc1N | inactive | – |
| O=C(O)[C@H]1C[C@H](C(=O)O)N1 | inconclusive: 1.1 nM | inactive |
| CC1CN(C(=O)C2CCCN2S(=O)(=O)c2ccc(Cl)cc2)CC(C)O1 (stereo unspecified) | inconclusive: 2 nM | – |
| O=C(c1ccc(Cl)s1)N1CCOCC1 | inconclusive: 1.2 nM | – |
| O=C(O)CC(NS(=O)(=O)c1ccc(Br)cc1)c1ccco1 (stereo unspecified) | inconclusive: 1.1 nM | – |
| CC(C)(Oc1ccc(Cl)cc1)C(=O)NC1CCSC1=O (stereo unspecified) | inconclusive: 2 nM | – |
| Cc1onc(-c2ccccc2Cl)c1-c1nc(-c2ccccn2)no1 | inconclusive: 1.1 nM | – |
| O=C1C2C3c4ccccc4C(c4ccccc43)C2C(=O)N1CN1CCOCC1 (stereo unspecified) | inconclusive: 1.3 nM | – |
| Cn1nc(-c2ccc(Cl)cc2)c2cc(C(=O)N3CCC(N4CCCCC4)CC3)sc21 | inconclusive: 1.4 nM | – |
| CC(C)[C@@H]1NC(=O)[C@H](CCCCN)NC(=O)[C@H](Cc2c[nH]c3ccccc23)NC(=O)[C@H](Cc2ccc(O)cc2)NC(=O)[C@H](C)N(C)C(=O)[C@H](Cc2ccccc2)NC1=O | inactive | – |
| O=C(C1CCCCC1)N1CCCC(c2nc(-c3ccc(F)cc3)no2)C1 (stereo unspecified) | inconclusive: 1.2 nM | – |
| N#Cc1c(NC(=O)CSc2nnnn2C2CCCC2)sc2c1CCCC2 | inconclusive: 1.8 nM | – |
| COCCOC(=O)C1=C(C)Nc2ncnn2C1c1ccc(F)cc1 (stereo unspecified) | inconclusive: 1.1 nM | – |

Quoted at random: 5 entries already listed, in no set order.

| Compound | max dye-equivalent concentration | outcome |
| --- | --- | --- |
| COCCOC(=O)C1=C(C)Nc2ncnn2C1c1ccc(F)cc1 (stereo unspecified) | inconclusive: 1.1 nM | – |
| O=C(C1CCCCC1)N1CCCC(c2nc(-c3ccc(F)cc3)no2)C1 (stereo unspecified) | inconclusive: 1.2 nM | – |
| CC1CN(C(=O)C2CCCN2S(=O)(=O)c2ccc(Cl)cc2)CC(C)O1 (stereo unspecified) | inconclusive: 2 nM | – |
| CN(C)/C=c1\sc2c(C#N)cc(C(=O)c3ccc(Br)cc3)n2c1=O | inactive | – |
| Cn1nc(-c2ccc(Cl)cc2)c2cc(C(=O)N3CCC(N4CCCCC4)CC3)sc21 | inconclusive: 1.4 nM | – |

(further entries)

| Compound | max dye-equivalent concentration | outcome |
| --- | --- | --- |
| COc1ccc2sc(NC(=O)CC(C)C)nc2c1 | inconclusive: 2.1 nM | – |
| Cc1ccc(N2CC(C(=O)Nc3nnc(C(C)C)s3)CC2=O)cc1 (stereo unspecified) | inconclusive: 1.1 nM | – |
| CCC1Oc2ccc(C)cc2N(CC(=O)NCCC2=CCCCC2)C1=O (stereo unspecified) | inconclusive: 1.2 nM | – |
| O=S(=O)(c1ccc(OCC(O)CN2CCN(c3ccccc3O)CC2)cc1)N1CCOCC1 (stereo unspecified) | inconclusive: 2.8 nM | – |
| COc1ccc(NC(=O)CCN2CCCCCC2)c(OC)c1 | inactive | – |
| Nc1ccc(C(=O)NCC(=O)O)cc1 | inconclusive: 1.2 nM | – |
| O=C1C[C@H]2OCC=C3CN4CC[C@@]5(C(=O)O)[C@H](N1)[C@H]2[C@H]3C[C@H]45 | inactive | – |
| O=C(Nc1ccc2c(c1)OCCO2)c1ccc(Cl)c(S(=O)(=O)N2CCOCC2)c1 | inconclusive: 1.3 nM | – |
| CCOc1ccc(NC(=O)CCNc2c(N3CCCC3)c(=O)c2=O)cc1 | inconclusive: 1.2 nM | – |
| CCCn1c(CCC(=O)O)ccc1-c1ccc(OC)cc1 | inconclusive: 1.2 nM | – |
| C[C@@H]1C[C@@H]2[C@H]3CCC4=CC(=O)C=C[C@]4(C)[C@]3(Cl)[C@@H](O)C[C@@]2(C)[C@@]1(O)C(=O)CO | inactive | – |
| CCCNS(=O)(=O)c1ccc(CCC(=O)NCC2CCCO2)cc1 (stereo unspecified) | inconclusive: 1.2 nM | – |
| CCC(c1nnnn1Cc1ccc(F)cc1)N(CCCO)Cc1cc2cc3c(cc2[nH]c1=O)OCO3 (stereo unspecified) | inconclusive: 1.5 nM | – |
| COC(=O)c1ccc2c(=O)n(CCN3CCOCC3)c(SCC(=O)c3ccccc3)nc2c1 | inconclusive: 1.9 nM | – |
| CC1=NN(c2ccc(S(=O)(=O)O)cc2)C(=O)/C1=C\c1ccc(Cl)cc1 | inactive | – |
| COCCn1c(=O)c(CCc2ccccc2)nc2cnc(Oc3ccc(OC)cc3)nc21 | inactive | – |
| Cc1nn(-c2ccc(Cl)cc2)c(N)c1C(O)(CSc1nccn1C)C(F)(F)F (stereo unspecified) | inconclusive: 1.7 nM | – |
| O=C(c1cccc(F)c1)N1CCC2(CC1)CN(Cc1ccccc1)C2 | inactive | – |
| Cc1nc(Nc2ccc3c(c2)OCCO3)c2nnn(Cc3ccccc3Cl)c2n1 | inconclusive: 1.3 nM | – |
| NC(N)=N[C@@H]1C(O)[C@H](N=C(N)N)[C@@H](O)C(O)[C@H]1O (stereo partly specified) | inconclusive: 1.7 nM | – |
| COc1cc2c(cc1OC)-c1nnnn1C(C)(C)C2 | inconclusive: 1.8 nM | – |
| CC(=O)OCCCCON1C(=O)c2ccccc2C1=O | inconclusive: 1.2 nM | – |
| CCN(CC)c1ccc2c(c1)OC(N)=C(C#N)C2c1cccnc1 (stereo unspecified) | inactive | – |
| CCOC(=O)C1CCCN(c2ncnc3c2cnn3-c2ccc(OC)cc2)C1 (stereo unspecified) | inconclusive: 1.1 nM | – |
| CC(=O)N1CCN(c2ccc(N=Cc3c(O)n(Cc4ccccc4)c(=O)[nH]c3=O)cc2)CC1 | inactive | – |
| CC(NC(=O)c1ccccc1Cl)C1COc2ccccc2O1 (stereo unspecified) | inconclusive: 1.4 nM | – |
| COc1ccc(NC(=O)N2CCCC3(CCN(C(=O)c4ccc(OC)cc4)CC3)C2)cc1 | inactive | – |
